No constants are given. Whether binding was seen depends on the method and setting. In cells and extracts the contact can be indirect. Some entries that bind do so weakly or less than the wild type. Tags and fused reporters may be left off the sequences shown.
Biological target: T1, Glutathione S-transferase theta 1 (Gstt1) (mouse (endogenous in PDAC-derived metastatic cell lines)) (UniProt Q64471)
T1 sequence: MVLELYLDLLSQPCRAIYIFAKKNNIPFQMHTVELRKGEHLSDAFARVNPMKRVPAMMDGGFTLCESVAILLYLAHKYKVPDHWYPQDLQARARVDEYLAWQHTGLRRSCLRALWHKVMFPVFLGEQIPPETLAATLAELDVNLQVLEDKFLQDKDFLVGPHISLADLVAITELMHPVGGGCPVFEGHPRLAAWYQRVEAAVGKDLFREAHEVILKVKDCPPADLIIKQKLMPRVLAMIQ
Assay: co-IP

By UniProt entry, the sequences of proteins in these tests, tags left out. Residues count along the entry.
UniProt P11276, residues 33-2477: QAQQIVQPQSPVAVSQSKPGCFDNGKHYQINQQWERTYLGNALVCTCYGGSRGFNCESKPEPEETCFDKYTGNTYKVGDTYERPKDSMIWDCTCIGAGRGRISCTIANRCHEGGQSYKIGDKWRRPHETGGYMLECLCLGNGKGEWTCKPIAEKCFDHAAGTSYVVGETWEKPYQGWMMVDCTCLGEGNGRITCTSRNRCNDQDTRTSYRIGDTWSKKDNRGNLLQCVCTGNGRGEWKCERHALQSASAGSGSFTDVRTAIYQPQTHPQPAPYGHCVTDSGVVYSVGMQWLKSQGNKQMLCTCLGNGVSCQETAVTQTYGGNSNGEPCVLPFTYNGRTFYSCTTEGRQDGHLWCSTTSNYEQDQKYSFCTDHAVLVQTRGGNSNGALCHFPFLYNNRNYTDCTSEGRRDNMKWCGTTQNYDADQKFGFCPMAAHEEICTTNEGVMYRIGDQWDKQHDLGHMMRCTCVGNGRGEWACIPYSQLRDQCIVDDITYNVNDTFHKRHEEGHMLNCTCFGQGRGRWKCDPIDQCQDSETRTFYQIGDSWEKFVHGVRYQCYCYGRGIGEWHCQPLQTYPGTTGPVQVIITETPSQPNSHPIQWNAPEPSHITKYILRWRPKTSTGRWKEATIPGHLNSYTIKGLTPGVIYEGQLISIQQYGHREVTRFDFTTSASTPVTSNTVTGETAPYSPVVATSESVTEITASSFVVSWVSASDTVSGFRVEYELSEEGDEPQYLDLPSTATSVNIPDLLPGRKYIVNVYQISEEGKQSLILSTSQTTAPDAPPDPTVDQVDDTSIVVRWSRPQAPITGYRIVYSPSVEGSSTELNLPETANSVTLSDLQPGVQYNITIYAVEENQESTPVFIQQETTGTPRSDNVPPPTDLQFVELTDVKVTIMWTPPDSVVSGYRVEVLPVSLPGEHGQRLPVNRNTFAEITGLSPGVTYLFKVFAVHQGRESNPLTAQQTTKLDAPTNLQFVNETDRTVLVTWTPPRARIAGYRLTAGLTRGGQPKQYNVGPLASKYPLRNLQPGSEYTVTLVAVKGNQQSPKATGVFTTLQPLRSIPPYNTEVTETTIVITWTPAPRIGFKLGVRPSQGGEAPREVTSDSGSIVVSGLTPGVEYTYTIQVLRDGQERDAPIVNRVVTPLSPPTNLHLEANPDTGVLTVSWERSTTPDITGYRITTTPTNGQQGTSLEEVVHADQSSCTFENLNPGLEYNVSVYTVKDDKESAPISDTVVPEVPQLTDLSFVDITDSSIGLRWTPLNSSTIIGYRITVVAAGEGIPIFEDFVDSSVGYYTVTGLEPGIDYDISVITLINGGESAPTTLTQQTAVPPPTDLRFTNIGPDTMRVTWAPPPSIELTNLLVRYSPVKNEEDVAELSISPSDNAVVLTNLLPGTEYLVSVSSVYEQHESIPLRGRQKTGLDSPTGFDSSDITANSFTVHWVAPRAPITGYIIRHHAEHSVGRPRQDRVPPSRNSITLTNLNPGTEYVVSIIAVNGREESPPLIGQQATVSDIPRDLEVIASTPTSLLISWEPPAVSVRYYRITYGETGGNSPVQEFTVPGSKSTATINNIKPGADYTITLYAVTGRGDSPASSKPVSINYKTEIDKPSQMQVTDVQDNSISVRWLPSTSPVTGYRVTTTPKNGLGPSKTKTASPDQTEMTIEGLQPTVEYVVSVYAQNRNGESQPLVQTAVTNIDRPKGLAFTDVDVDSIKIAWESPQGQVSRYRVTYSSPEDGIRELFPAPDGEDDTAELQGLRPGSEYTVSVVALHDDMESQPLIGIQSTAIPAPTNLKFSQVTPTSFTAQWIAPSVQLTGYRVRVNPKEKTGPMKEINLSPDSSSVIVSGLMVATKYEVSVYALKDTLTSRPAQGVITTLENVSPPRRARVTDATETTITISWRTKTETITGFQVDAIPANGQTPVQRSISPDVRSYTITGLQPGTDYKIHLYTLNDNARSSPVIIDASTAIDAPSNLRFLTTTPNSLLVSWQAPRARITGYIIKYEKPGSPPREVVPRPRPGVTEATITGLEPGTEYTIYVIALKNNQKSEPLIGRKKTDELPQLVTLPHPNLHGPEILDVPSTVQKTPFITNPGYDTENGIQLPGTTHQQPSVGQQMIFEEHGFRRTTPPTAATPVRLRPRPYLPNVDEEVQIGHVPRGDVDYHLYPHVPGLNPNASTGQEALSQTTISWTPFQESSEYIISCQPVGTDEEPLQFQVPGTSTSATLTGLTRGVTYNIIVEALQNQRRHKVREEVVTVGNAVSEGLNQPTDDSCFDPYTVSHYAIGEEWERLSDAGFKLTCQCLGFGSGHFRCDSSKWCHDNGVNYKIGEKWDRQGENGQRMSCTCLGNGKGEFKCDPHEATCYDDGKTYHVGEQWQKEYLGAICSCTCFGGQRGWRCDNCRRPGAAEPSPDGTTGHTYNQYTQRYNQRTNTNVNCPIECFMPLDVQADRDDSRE

binding | Substance
binds | Plectin (from UniProt Q9QXS1 1-4691)
binds | Fibronectin (from UniProt P11276 33-2477)
